Measurements from “University of Dundee, Small-Polar-MMV Screening Library” (2021), ChEMBL document CHEMBL3988442.

Protein sequences, listed by entry. Tags and fused reporters are not part of them.
UniProt E9BF75, entry or part of it: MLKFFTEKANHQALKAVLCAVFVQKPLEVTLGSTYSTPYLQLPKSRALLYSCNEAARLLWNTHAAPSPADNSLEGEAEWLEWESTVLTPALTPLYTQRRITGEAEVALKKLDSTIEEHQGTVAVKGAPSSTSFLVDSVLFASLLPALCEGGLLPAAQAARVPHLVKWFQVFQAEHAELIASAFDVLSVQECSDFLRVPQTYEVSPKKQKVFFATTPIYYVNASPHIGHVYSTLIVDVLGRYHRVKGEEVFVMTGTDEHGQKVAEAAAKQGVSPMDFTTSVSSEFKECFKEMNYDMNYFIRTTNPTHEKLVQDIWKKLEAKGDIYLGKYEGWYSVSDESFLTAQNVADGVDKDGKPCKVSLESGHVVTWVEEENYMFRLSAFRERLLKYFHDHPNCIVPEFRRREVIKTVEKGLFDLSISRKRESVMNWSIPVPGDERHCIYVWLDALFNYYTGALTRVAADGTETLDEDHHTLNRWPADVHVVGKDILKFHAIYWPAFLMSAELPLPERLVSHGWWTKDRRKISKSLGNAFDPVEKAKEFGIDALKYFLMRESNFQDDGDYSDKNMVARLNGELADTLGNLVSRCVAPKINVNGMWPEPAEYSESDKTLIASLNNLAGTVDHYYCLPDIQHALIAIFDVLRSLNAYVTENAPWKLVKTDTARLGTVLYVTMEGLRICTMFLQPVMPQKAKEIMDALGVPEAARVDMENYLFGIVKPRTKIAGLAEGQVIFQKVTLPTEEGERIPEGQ

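Primary screen of methionyl-tRNA synthetase; the read-out is not stated. Target: Methionyl-tRNA synthetase (putative), Leishmania donovani (UniProt E9BF75). The test concentration is not given. The values are filed as inhibition. About 68,000 compounds were tested under these conditions; 0.035% (about 24) showed 50% or more at least once.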

All values are in %. The controls that fix the scale are not given in the record; negative values are as filed. The compounds are a random part of those screened.

Result for Cc1nnsc1CN1C[C@H]2CC[C@@H]1CN(Cc1ccc(F)cc1)C2 was 6.803%.
Result for CC(C)NCC1(O)CCCN(CCC2CCCCC2)C1=O (configuration not stated) was 9.365%.
Result for NCCc1nc(N(Cc2nccs2)C2CC2)c2ccccc2n1 was 0%.
Result for O=C(CN1CCc2ccccc21)NCc1ccc(Cl)cc1 was 13.59%.
Result for CC1CN(CCOc2cccc(C#N)c2)CCN1Cc1nccn1C (configuration not stated) was 19.55%.
Result for Cn1cccc1C(=O)N1CCCC2(CCCN2Cc2cccnc2)C1 (configuration not stated) was 8.155%.
Result for CC(C)CC(=O)N1Cc2ccccc2CC1C(=O)Nc1nncs1 (configuration not stated) was 16.1%.
Result for CS(=O)(=O)c1cc(S(N)(=O)=O)ccc1NCC1CCCO1 (configuration not stated) was 5.915%.
Result for Cc1nn(C)c(Oc2ccc(Cl)cc2)c1CN1CCC(CN)C1 (configuration not stated) was 3.686%.
Result for CCCOC(C)C(=O)N1CCC(O)(c2ccc3nc(C)ccc3c2)CC1 (configuration not stated) was 5.618%.
Result for CC(=O)Nc1nc(C2CCN(C(C)C)CC2)cs1 was 17.51%.
Result for CC(O)CN1CCC(CN(C)Cc2cc(C#N)ccc2F)CC1 (configuration not stated) was -4.01%.
Result for Cn1cccc(NC(=O)NCCOCc2ccccc2)c1=O was 13.31%.
Result for CC(C)n1ncc2c1NC(=O)CSC2C(C)(C)C (configuration not stated) was 17.84%.
Result for O=C(Nc1ccc(F)cc1)N1CCC(CO)(Nc2ccccc2)CC1 was 13.16%.
Result for CC(C)(C)C(=O)NC[C@H]1Cn2c(-c3ccccc3)cnc2CO1 was 11.19%.
Result for COc1ccccc1CN1C[C@@H](F)[C@@H](OCc2nc3cnccc3[nH]2)C1 was 11.28%.
Result for CSCC(C)(O)CNc1ncccc1C(F)(F)F (configuration not stated) was 4.83%.
Result for CCNC(=O)CCC(=O)NC(Cc1ccccc1)c1sccc1C (configuration not stated) was 8.078%.
Result for COc1ccc(CN(C)C2CCN(C(=O)C(C)C)CC2)c2cccnc12 was 17.25%.
Result for COCCNC(=O)C1CC(=O)N(c2n[nH]c3cccc(F)c23)C1 (configuration not stated) was 15.45%.
Result for COc1ncc(NS(=O)(=O)c2ccc(F)c(F)c2)c(OC)n1 was 3.727%.
Result for Cc1nn(CC(=O)N2CCN(Cc3cn(C)nc3C)CC2)cc1Br was 7.527%.
Result for Cn1cc(C(=O)NCc2cn3c(n2)CN(Cc2ccccn2)CC3)cn1 was 13.33%.
Result for COC1CCN(C(=O)c2ccccc2NCc2cccnc2)CC1 was 17.76%.
Result for Cc1ccc(C(=O)NCc2ccc(N3CCNC(=O)C3)c(F)c2)cc1 was 11.71%.
Result for CCOCCCC(=O)Nc1cccnc1-n1ccnc1C was 7.434%.
Result for CN(C(=O)Cn1nc(-c2ccccc2)ccc1=O)C1CCS(=O)(=O)C1 (configuration not stated) was 17.27%.
Result for CSC(C)(C)CNC(=O)NC1CCC1 was 13.79%.
Result for CC(C)C(=O)N1CCN(c2ncnc3cc4c(cc23)OCCO4)CC1 was 27.89%.
Result for Cc1cccc(I)c1C(=O)NCc1ncc[nH]1 was 9.408%.
Result for O=C(O)c1ccc2ccc(N3CCN(CC4CC4)CC3)n2c1 was 29.97%.
Result for CCCC(NC(=O)c1ccc(OC)cc1F)c1nnn[nH]1 (configuration not stated) was 11.71%.

Some entries from above, unchanged:

| compound | inhibition |
|---|---|
| `CCOCCCC(=O)Nc1cccnc1-n1ccnc1C` | 7.434% |
| `COc1ncc(NS(=O)(=O)c2ccc(F)c(F)c2)c(OC)n1` | 3.727% |